We go through three molecules from PMC11845846.

Protein sequences, listed by entry. Tags and fused reporters are not part of them. Residues count along the entry.
UniProt Q92673, residues 82-2214: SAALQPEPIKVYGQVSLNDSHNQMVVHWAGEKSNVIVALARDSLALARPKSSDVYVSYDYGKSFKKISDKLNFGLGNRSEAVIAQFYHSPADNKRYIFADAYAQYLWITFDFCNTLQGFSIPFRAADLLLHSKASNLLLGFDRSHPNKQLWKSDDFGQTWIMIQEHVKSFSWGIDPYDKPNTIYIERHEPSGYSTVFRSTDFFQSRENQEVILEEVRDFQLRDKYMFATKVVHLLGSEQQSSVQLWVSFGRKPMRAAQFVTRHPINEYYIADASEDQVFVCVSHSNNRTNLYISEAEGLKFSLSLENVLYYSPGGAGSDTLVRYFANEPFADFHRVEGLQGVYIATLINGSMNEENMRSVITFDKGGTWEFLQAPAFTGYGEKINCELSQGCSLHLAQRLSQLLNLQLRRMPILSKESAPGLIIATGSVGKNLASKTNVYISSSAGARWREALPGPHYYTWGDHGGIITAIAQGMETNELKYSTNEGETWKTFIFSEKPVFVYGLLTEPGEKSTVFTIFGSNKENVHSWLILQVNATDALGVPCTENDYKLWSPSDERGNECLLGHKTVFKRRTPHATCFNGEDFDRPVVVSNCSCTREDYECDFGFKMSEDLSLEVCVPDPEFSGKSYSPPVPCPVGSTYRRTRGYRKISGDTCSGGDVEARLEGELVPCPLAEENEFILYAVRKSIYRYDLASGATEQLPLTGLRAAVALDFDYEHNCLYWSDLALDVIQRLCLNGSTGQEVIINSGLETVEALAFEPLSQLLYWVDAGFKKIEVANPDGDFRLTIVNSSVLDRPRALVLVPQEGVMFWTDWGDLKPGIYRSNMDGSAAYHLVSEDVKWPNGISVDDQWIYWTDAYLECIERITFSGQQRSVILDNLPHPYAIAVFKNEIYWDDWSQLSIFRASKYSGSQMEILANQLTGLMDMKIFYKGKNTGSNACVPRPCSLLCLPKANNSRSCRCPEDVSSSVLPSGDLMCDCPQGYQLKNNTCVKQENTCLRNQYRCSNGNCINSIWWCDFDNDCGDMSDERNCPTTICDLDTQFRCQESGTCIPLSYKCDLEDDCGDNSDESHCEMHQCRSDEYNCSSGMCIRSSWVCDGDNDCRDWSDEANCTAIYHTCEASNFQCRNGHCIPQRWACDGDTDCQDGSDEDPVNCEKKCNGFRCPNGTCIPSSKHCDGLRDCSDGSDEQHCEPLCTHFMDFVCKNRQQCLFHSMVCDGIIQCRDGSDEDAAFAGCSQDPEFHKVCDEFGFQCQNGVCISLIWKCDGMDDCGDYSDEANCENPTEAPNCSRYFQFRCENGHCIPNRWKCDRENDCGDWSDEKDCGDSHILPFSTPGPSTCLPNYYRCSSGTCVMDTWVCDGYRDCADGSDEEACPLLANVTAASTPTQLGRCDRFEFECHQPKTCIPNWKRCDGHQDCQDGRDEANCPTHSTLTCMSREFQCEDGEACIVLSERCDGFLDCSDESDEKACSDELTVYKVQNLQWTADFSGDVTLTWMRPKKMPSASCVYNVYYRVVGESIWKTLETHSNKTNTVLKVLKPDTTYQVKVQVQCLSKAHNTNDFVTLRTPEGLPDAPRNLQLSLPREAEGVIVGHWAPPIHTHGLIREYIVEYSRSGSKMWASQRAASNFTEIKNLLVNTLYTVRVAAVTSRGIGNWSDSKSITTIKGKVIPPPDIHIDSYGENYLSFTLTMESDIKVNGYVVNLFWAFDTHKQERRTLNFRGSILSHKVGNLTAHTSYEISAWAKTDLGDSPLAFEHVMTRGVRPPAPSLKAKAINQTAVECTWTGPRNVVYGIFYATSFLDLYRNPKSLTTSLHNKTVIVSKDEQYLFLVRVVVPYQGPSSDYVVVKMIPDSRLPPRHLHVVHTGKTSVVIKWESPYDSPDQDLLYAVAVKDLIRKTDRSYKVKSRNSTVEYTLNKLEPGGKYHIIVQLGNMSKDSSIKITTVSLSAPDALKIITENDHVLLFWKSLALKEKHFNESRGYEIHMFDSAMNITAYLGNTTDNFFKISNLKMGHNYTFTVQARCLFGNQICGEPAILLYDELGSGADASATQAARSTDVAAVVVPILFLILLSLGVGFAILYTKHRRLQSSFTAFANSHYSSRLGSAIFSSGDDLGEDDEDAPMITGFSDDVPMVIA
UniProt P04406: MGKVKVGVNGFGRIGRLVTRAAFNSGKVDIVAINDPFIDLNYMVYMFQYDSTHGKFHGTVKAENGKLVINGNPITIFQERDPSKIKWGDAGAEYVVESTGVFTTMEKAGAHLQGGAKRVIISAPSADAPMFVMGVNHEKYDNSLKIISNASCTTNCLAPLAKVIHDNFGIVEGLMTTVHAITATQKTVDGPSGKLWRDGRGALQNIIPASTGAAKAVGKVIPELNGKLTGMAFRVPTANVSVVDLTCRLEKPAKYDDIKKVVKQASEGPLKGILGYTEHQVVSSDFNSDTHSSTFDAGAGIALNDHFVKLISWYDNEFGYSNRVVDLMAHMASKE

Results are given in words; binding and its absence hold for the method and conditions named. Binding seen in cells or lysates may run through a third protein. Some entries that bind do so weakly or less than the wild type.

Experiment [1] concerns the target T1, CD14 (UniProt P08571).
T1 sequence: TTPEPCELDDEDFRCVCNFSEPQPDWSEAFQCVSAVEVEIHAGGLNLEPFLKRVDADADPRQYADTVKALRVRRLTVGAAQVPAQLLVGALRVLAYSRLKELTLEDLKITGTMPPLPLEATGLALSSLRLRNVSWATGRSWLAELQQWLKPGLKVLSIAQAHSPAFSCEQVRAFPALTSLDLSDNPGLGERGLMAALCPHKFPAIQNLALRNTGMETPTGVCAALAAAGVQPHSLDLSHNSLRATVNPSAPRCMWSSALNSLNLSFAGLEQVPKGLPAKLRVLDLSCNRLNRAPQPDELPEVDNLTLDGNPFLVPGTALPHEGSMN
As to the kind of experiment: co-IP; transfected HEK293 cells; immunoprecipitation of CD14 or of SORLA from co-transfected cells, with singly transfected cells as controls; the other protein detected on blots.

Experiment [2] has as its target Sorting protein‐related receptor containing class A repeats (SORLA) (UniProt Q92673). The description is as above.

Regarding GAPDH (from UniProt P04406 1-335), the binding result in experiment [1] and in experiment [2] was “no binding” each time.

On to “Sorting protein‐related receptor containing class A repeats (SORLA) (from UniProt Q92673 82-2214)”, for which the binding entry in experiment [1] was “binds”.

B1: CD14 (receptor, UniProt P08571 20-345)
chain: TTPEPCELDDEDFRCVCNFSEPQPDWSEAFQCVSAVEVEIHAGGLNLEPFLKRVDADADPRQYADTVKALRVRRLTVGAAQVPAQLLVGALRVLAYSRLKELTLEDLKITGTMPPLPLEATGLALSSLRLRNVSWATGRSWLAELQQWLKPGLKVLSIAQAHSPAFSCEQVRAFPALTSLDLSDNPGLGERGLMAALCPHKFPAIQNLALRNTGMETPTGVCAALAAAGVQPHSLDLSHNSLRATVNPSAPRCMWSSALNSLNLSFAGLEQVPKGLPAKLRVLDLSCNRLNRAPQPDELPEVDNLTLDGNPFLVPGTALPHEGSMN
As to B1, the binding entry in experiment [2] is “binds”.
